Only a part is listed here, and it is no random draw. Calls are pooled over several reports, among them a noisy single-well screen.
Each molecule was assayed against T1, Or5p80 (Mus musculus) (UniProt Q8VG42). Conditions: stereoisomer not certain.
T1 sequence (whole entry): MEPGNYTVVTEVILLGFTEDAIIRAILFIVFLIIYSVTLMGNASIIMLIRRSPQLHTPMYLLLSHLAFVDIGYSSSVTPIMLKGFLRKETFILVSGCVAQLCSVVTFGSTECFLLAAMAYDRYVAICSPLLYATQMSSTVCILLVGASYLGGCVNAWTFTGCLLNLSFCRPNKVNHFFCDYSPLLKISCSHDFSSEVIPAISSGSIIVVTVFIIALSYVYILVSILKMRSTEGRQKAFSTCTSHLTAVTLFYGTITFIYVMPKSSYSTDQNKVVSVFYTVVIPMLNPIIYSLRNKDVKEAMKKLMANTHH
Outline: (§1)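 Each receptor–molecule pair is labelled responsive or non-responsive (inactive) according to whether the original authors judged the measured signal statistically different from baseline. The data were taken from the main text and supplementary material of published papers and checked for typos and inconsistencies. Assay methods differed by source, with transient luciferase assays in mammalian cell lines being common.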
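Also: active if original authors judged signal statistically different from baseline.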

Row | SMILES | odorant receptor agonist call
1 | CCCCCCC=O | inactive
2 | O=C1CCCCC1 | inactive
3 | CC(=O)c1ccccc1 | inactive
4 | CCCCCCCCC=O | inactive
5 | CCCCCC(C)=O | inactive
6 | CCCCCC(=O)O | inactive
7 | C=C(C)C1CC=C(C)C(=O)C1 (configuration not stated) | active
8 | CC(C)(O)CCCC1=CCC(C=O)CC1 (configuration not stated) | inactive
9 | CC12CCC(C1)C(C)(C)C2=O (configuration not stated) | inactive
10 | CCCCCCCC=O | inactive
11 | CCCCCCCCCC=O | inactive

What follows are molecules tested against T2, Or7a40 (Mus musculus) (UniProt Q9JHB2). Conditions: stereoisomer not certain.
T2 sequence (whole entry): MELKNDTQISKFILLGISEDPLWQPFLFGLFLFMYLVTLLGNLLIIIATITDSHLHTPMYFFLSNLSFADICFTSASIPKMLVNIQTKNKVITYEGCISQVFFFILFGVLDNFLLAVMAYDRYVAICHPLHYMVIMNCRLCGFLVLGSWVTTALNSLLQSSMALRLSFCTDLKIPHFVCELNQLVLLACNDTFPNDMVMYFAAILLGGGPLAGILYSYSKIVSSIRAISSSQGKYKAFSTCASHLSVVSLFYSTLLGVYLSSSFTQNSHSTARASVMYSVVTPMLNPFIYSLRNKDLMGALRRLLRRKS
Outline: as §1

Row | SMILES | odorant receptor agonist call
12 | CCCCCCC=O | inactive
13 | O=C1CCCCC1 | inactive
14 | CC(=O)c1ccccc1 | inactive
15 | CCCCCCCCC=O | inactive
16 | CCCCCC(C)=O | inactive
17 | CCCCCC(=O)O | inactive
18 | C=C(C)C1CC=C(C)C(=O)C1 (configuration not stated) | inactive
19 | CC(C)(O)CCCC1=CCC(C=O)CC1 (configuration not stated) | inactive
20 | CC12CCC(C1)C(C)(C)C2=O (configuration not stated) | inactive
21 | CCCCCCCC=O | inactive
22 | CCCCCCCCCC=O | inactive
